# Laboratory results: PubChem BioAssay AID2685 (National Center for Advancing Translational Sciences (NCATS), 2010)
# Several values for one entry are separate records, joined by “and”; a condition that tells them apart may be missing. Equal values may be shown once. This is one part of the list. Further columns of the screen follow, without active or inactive calls. Compounds called inactive in the main read-out are mostly missing here. The note in brackets gives the kind of curve behind each potency; many fits are weak.
# Assay: qHTS Assay for Lipid Storage Modulators in Drosophila S3 Cells;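 for cell number change: cells counted by Cell Tracker Red CMTPX staining in the red channel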
# Settings: BODIPY lipid droplet fluorescence, 18-24 h; for cell number change: measured here: cell count max response, cells fed with added oleic acid
# Procedure, shortened: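 Drosophila S3 cells loaded with oleic acid (400 uM, as added) and compounds at several concentrations; lipid droplets imaged by 488-nm laser-scanning cytometry, 500–530 nm intensity and object ratio to cell channel. Percent activity normalized to 20 uM Triacsin C.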
# [1] = measured here: cell number channel AC50, cells fed with added oleic acid
# [2] = measured here: lipid fluorescence (Fed channel) AC50, cells fed with added oleic acid
Structure (SMILES),cell number change [%],AC50 [1],AC50 [2]
COCc1ccc(C(=O)NC2CCCc3c2cnn3-c2ccc(C)c(C)c2)o1 (centres undefined),-9.9,"0.058 µM [falling, full curve, poor fit]","0.0206 µM [falling, full curve]"
Cc1nnsc1C(=O)N1CCCC(N2CCN(c3ccc(F)cc3)CC2)C1 (centres undefined),22.9,–,"9.2 µM [rising, partial curve, poor fit]"
CCc1cc(=O)oc2cc(C)cc(OC(C)C(=O)NCc3ccccn3)c12 (centres undefined),23.4,–,–
Cc1ccc2cccc(OCC(=O)Nc3ccc4c(c3)OCO4)c2n1,18.5,–,–
COc1ccccc1CCC(=O)OCC(=O)Nc1ccc(C)c(S(=O)(=O)N2CCCCC2)c1,9.78,–,"5.8 µM [rising, full curve, poor fit]"
CC1CCN(C(=O)C(=O)c2cn(CC(=O)N3CCCCCC3)c3ccccc23)CC1,–,"5.17 µM [rising, single point]","23.1 µM [falling, single point]"
O=C(Nn1c(-c2ccncc2)nc2ccccc2c1=O)c1ccc([N+](=O)[O-])cc1Cl,–,"6.51 µM [rising, single point]","16.4 µM [rising, partial curve]"
COc1cccc(NC(=S)N2CCN(c3ccc([N+](=O)[O-])cc3)CC2)c1,-14.4,–,–
CCOC(=O)N1CCN(c2c(Nc3cc(C)[nH]n3)c(=O)c2=O)CC1,-4.05,–,"0.651 µM [falling, partial curve, poor fit]"
COc1ccc(CSC2=NCCN2)cc1Cl,-5.56,–,–
COc1ccccc1NC(=O)Nc1ccnn1C1CCCCC1,-15.1,–,–
COc1cccc(CNC(=O)COC(=O)c2cc([N+](=O)[O-])ccc2N2CCCC2)c1,-37.1,"29.1 µM [falling, single point]","18.4 µM [falling, single point]"
CCOC(=O)C1=C(C)Nc2ncnn2C1c1c[nH]c2ccccc12 (centres undefined),-2.86,–,"29.1 µM [rising, single point]"
NC(=O)C1CCN(C(=O)COc2cccc3ccccc23)CC1,3.5,–,"3.66 µM [falling, single point]"
CCNC(=O)CC(=O)Nc1ccccc1C(=O)O,-20.5,–,"0.651 µM [falling, full curve]"
C=C1C[C@]23C[C@@]1(O)CC[C@H]2[C@@]12C=C[C@H](O)[C@@](C)(C(=O)O1)[C@H]2[C@@H]3C(=O)O,-23.9,–,"103 nM [rising, single point] and 1.64 µM [falling, partial curve, poor fit]"
Cc1ccc2nc(SCC(=O)Nc3ccc(Cl)cc3)nc(=O)n2c1,-11.4,–,"0.13 µM [falling, full curve, poor fit]"
CN(C)C1=NC(=O)/C(=C\c2ccccc2)S1,-20.5,"2.59 µM [falling, partial curve, poor fit]","3.66 µM [falling, full curve]"
COc1cccc(OC)c1C(=O)Nc1ccc(N2CCCCC2)cc1,13.4,–,"0.731 µM [falling, full curve]"

# Rewritten with bars between the fields: two of the compounds above.
Structure (SMILES) | cell number change [%] | AC50 [1] | AC50 [2]
CCNC(=O)CC(=O)Nc1ccccc1C(=O)O | -20.5 | – | 0.651 µM [falling, full curve]
C=C1C[C@]23C[C@@]1(O)CC[C@H]2[C@@]12C=C[C@H](O)[C@@](C)(C(=O)O1)[C@H]2[C@@H]3C(=O)O | -23.9 | – | 103 nM [rising, single point] and 1.64 µM [falling, partial curve, poor fit]

# Further entries:

Structure (SMILES),cell number change [%],AC50 [1],AC50 [2]
CCS(=O)(=O)NCCc1csc(-c2cccnc2)n1,47,"0.164 µM [rising, full curve, poor fit]",–
O=C(C1CCC1)N1CCc2cc(S(=O)(=O)NC3CCCc4ccccc43)ccc21 (centres undefined),87.2,"1.64 µM [rising, full curve]","2.31 µM [rising, partial curve]"
Cc1cc(N2CCN(S(=O)(=O)c3ccc(C)c(C)c3)CC2)c2ccccc2n1,42.3,"9.2 µM [rising, partial curve, poor fit]","0.731 µM [falling, single point]"
CCCNC(=O)C(=O)NCC(c1ccc2c(c1)OCO2)N1CCN(c2ccc(F)cc2)CC1 (centres undefined),-6.57,–,–
COC(=O)c1ccc(/C=C/C(=O)c2ccc(OC)c(OC)c2)cc1,-19.8,–,"29.1 µM [falling, single point]"
COc1ccc(CN2C(=O)C(CC(C)C)Nc3ncnc(N4CCCCC4)c32)cc1 (centres undefined),-33.6,"9.2 µM [falling, partial curve, poor fit]",–
Cc1cc(NC(=O)COC(=O)c2ccco2)no1,-45.4,"25.9 µM [falling, single point]","20.6 µM [falling, partial curve, poor fit]"
O=C(NCC1CCCO1)C1CCCN(S(=O)(=O)c2cccc(C(F)(F)F)c2)C1 (centres undefined),25.2,–,"29.1 µM [rising, single point]"
CCOc1cc(/C=C(/C#N)C(=O)Nc2ccc(O)cc2)cc(Br)c1O,13.1,"0.82 µM [falling, full curve, poor fit]","0.731 µM [falling, full curve]"
O=C(CNC(=O)c1ccccc1F)c1ccccc1,6.3,–,"29.1 µM [rising, single point]"
CCOc1cc(N2CCOCC2)c(OCC)cc1NC(=O)COC(=O)c1cc(C)cc(C)c1,6.45,–,"0.231 µM [rising, full curve, poor fit]"
Cc1ccc(S(=O)(=O)N2CCCCC2)cc1,3.75,–,"0.13 µM [falling, full curve, poor fit]"
Cc1cc(C)n(-c2nc3ccccc3nc2N2CCN(C(=O)c3ccc(Cl)cc3)CC2)n1,4.01,–,"8.2 µM [rising, partial curve]"
Cc1c(F)cccc1NC(=O)c1ccc2c(c1)CCN2S(C)(=O)=O,-1.69,–,"29.1 µM [falling, single point]"
O=C(c1ccc(F)cc1)N(Cc1ccccc1)C1CCS(=O)(=O)C1 (centres undefined),4.64,–,–
O=C(Nc1cccc2cccnc12)c1cccc(Cl)c1,-21.5,–,–
CCCCc1ccc(NC(=S)NCc2cccc(OC)c2)cc1,-17.3,–,"25.9 µM [falling, partial curve, poor fit]"
COc1ccccc1N1CCN(C(=O)Cn2nnc(-c3cccs3)n2)CC1,93.2,"10.3 µM [rising, partial curve]","5.8 µM [rising, partial curve]"
